Literature values, collected in patent US20040024042A1, “COX2 inhibition in the prevention and treatment of autosomal dominant polycystic kidney disease” (Vanderbilt University, priority 2002, published 2004).
For some of these results: The name of at least one read-out is uncertain. For some of these results: At least one compound was matched to its structure with a doubt left.

Experiments:
[1] = in vivo
mouse models of FAP = conditions: mice treated with COX2 inhibitor

Structure (SMILES)	Effect of food on Cmax or extent of absorption (AUC) [1]	Effect of race, gender and mild liver disease on AUC [1]	Time of Cmax after dose ingestion [1]	Polyp formation (mouse models of FAP)
CS(=O)(=O)c1ccc(C2=C(c3ccccc3)C(=O)OC2)cc1 [rofecoxib]	no significant effect	little or no effect	2 to 3 h	
Cc1ccc(-c2cc(C(F)(F)F)nn2-c2ccc(S(N)(=O)=O)cc2)cc1 [celecoxib, 4-[5-(4-methyphenyl)-3-(trifluoromethyl)-1H-pyrazol-1-yl] benzenesulfonamide]				marked reduction in polyp formation
